Results deposited as PubChem BioAssay AID504764 (Drosophila RNAi Screening Center, 2011).
The screen tested about 22,000 reagents; below is an unselected part of those that have a named target and a result. Of all reagents, 403 (1.9%) were called active. 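Unnormalised raw counts per well; ratio z-scores behind the hit calls and whether each hit raises or lowers signal are not deposited.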 Entries without a mark were called inactive. The numbers tell different reagents against one gene apart. No sequences are given here. Not given: the amount of reagent.

Test: 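Genome-wide screen for regulators of Notch-driven gene expression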 (primary screen)
System: Drosophila Kc167 cells
Reagents: long dsRNA against Drosophila genes
Timing: about 5 days (4 days dsRNA, then 24 h after transfection)
Conditions: transfection of constitutively active membrane-tethered Notch lacking the extracellular domain, read 24 h later
Measured: 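Light from a Notch-responsive E(spl)m3 luciferase reporter under active Notch, with control-promoter and no-Notch reporter wells to normalise; raw counts from paired wells a and b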
Reading the numbers: induced reporter light, run 1, well a and induced reporter light, run 1, well b: higher = more light from the Notch target reporter with active Notch; control promoter light, run 1, well a and control promoter light, run 1, well b: higher = more light from the viral control promoter (cell number, transfection, viability); uninduced reporter light, run 1, well a: higher = more light from the Notch target reporter without active Notch
Hit rule: 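Wells with low control signal or poorly matching duplicates excluded; duplicates averaged; per source plate, z beyond ±2 for induced/control log2 ratio or beyond ±1.8 for induced/uninduced marks a hit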
Calls: active = modifier hit (raised or lowered Notch signal); inactive = not a hit

Silencing of CG30416 came out at: induced reporter light, run 1, well a = 1.84e5; induced reporter light, run 1, well b = 1.48e5; control promoter light, run 1, well a = 1.30e5; control promoter light, run 1, well b = 1.43e5; uninduced reporter light, run 1, well a = 10388.
For obst-J (obstructor-J), the entry reads induced reporter light, run 1, well a = 1.36e5; induced reporter light, run 1, well b = 1.41e5; control promoter light, run 1, well a = 1.21e5; control promoter light, run 1, well b = 1.34e5; uninduced reporter light, run 1, well a = 13800.
Against CG9008, the values are induced reporter light, run 1, well a = 1.91e5; induced reporter light, run 1, well b = 2.64e5; control promoter light, run 1, well a = 1.87e5; control promoter light, run 1, well b = 2.14e5; uninduced reporter light, run 1, well a = 15988.
LpR1 (Lipophorin receptor 1) #1 showed induced reporter light, run 1, well a = 2.07e5; induced reporter light, run 1, well b = 2.47e5; control promoter light, run 1, well a = 2.33e5; control promoter light, run 1, well b = 2.70e5; uninduced reporter light, run 1, well a = 14360.
After knock-down of LpR1 (Lipophorin receptor 1) #2, the record shows induced reporter light, run 1, well a = 1.80e5; induced reporter light, run 1, well b = 1.80e5; control promoter light, run 1, well a = 1.96e5; control promoter light, run 1, well b = 1.61e5; uninduced reporter light, run 1, well a = 11560.
After knock-down of LpR1 (Lipophorin receptor 1) #3, the record shows induced reporter light, run 1, well a = 1.43e5; induced reporter light, run 1, well b = 1.72e5; control promoter light, run 1, well a = 1.99e5; control promoter light, run 1, well b = 1.75e5; uninduced reporter light, run 1, well a = 11818.
After knock-down of CanA1 (Calcineurin A1), the record shows induced reporter light, run 1, well a = 1.32e5; induced reporter light, run 1, well b = 1.29e5; control promoter light, run 1, well a = 1.71e5; control promoter light, run 1, well b = 2.07e5; uninduced reporter light, run 1, well a = 12810.
nej (nejire) #1 gave induced reporter light, run 1, well a = 1.27e5; induced reporter light, run 1, well b = 1.15e5; control promoter light, run 1, well a = 1.99e5; control promoter light, run 1, well b = 1.56e5; uninduced reporter light, run 1, well a = 9105.
Against nej (nejire) #2, the values are induced reporter light, run 1, well a = 70185; induced reporter light, run 1, well b = 86445; control promoter light, run 1, well a = 59630; control promoter light, run 1, well b = 58450; uninduced reporter light, run 1, well a = 7955.
CG10996 scored induced reporter light, run 1, well a = 1.08e5; induced reporter light, run 1, well b = 98315; control promoter light, run 1, well a = 1.34e5; control promoter light, run 1, well b = 1.26e5; uninduced reporter light, run 1, well a = 15450.
ATP8A (ATPase 8A) #1 scored induced reporter light, run 1, well a = 1.78e5; induced reporter light, run 1, well b = 1.75e5; control promoter light, run 1, well a = 2.22e5; control promoter light, run 1, well b = 2.82e5; uninduced reporter light, run 1, well a = 19045.
For ATP8A (ATPase 8A) #2, the values are induced reporter light, run 1, well a = 1.63e5; induced reporter light, run 1, well b = 1.35e5; control promoter light, run 1, well a = 1.34e5; control promoter light, run 1, well b = 1.19e5; uninduced reporter light, run 1, well a = 11120.
With knock-down of ATP8A (ATPase 8A) #3, the screen gave induced reporter light, run 1, well a = 96495; induced reporter light, run 1, well b = 88235; control promoter light, run 1, well a = 1.14e5; control promoter light, run 1, well b = 96910; uninduced reporter light, run 1, well a = 7820.
With knock-down of CG15185, the screen gave induced reporter light, run 1, well a = 74075; induced reporter light, run 1, well b = 91615; control promoter light, run 1, well a = 83975; control promoter light, run 1, well b = 64640; uninduced reporter light, run 1, well a = 7620.
For sut2 (sugar transporter 2) the deposit lists induced reporter light, run 1, well a = 1.46e5; induced reporter light, run 1, well b = 1.13e5; control promoter light, run 1, well a = 1.23e5; control promoter light, run 1, well b = 1.20e5; uninduced reporter light, run 1, well a = 11190.
CG33128 gave induced reporter light, run 1, well a = 1.43e5; induced reporter light, run 1, well b = 94335; control promoter light, run 1, well a = 99025; control promoter light, run 1, well b = 69270; uninduced reporter light, run 1, well a = 9955.
Depletion of Polr1E (RNA polymerase I subunit E) #1 came out at: induced reporter light, run 1, well a = 2.17e5; induced reporter light, run 1, well b = 1.88e5; control promoter light, run 1, well a = 2.07e5; control promoter light, run 1, well b = 1.84e5; uninduced reporter light, run 1, well a = 10532.
After knock-down of Polr1E (RNA polymerase I subunit E) #2, the screen gave induced reporter light, run 1, well a = 2.73e5; induced reporter light, run 1, well b = 2.48e5; control promoter light, run 1, well a = 3.28e5; control promoter light, run 1, well b = 3.53e5; uninduced reporter light, run 1, well a = 20530.
Silencing of CG15034 gave: induced reporter light, run 1, well a = 1.21e5; induced reporter light, run 1, well b = 1.30e5; control promoter light, run 1, well a = 2.20e5; control promoter light, run 1, well b = 2.34e5; uninduced reporter light, run 1, well a = 10165.
For Mad1 (Mitotic arrest-deficient 1), the values are induced reporter light, run 1, well a = 1.26e5; induced reporter light, run 1, well b = 93045; control promoter light, run 1, well a = 98255; control promoter light, run 1, well b = 77335; uninduced reporter light, run 1, well a = 9460.
After knock-down of fog (folded gastrulation) the results were induced reporter light, run 1, well a = 1.27e5 (active); induced reporter light, run 1, well b = 1.31e5; control promoter light, run 1, well a = 1.29e5; control promoter light, run 1, well b = 1.09e5; uninduced reporter light, run 1, well a = 12845.
Knock-down of CG7465 gave: induced reporter light, run 1, well a = 2.04e5; induced reporter light, run 1, well b = 1.45e5; control promoter light, run 1, well a = 2.01e5; control promoter light, run 1, well b = 1.68e5; uninduced reporter light, run 1, well a = 9530.
CG9451 gave induced reporter light, run 1, well a = 1.03e5; induced reporter light, run 1, well b = 1.06e5; control promoter light, run 1, well a = 1.03e5; control promoter light, run 1, well b = 71620; uninduced reporter light, run 1, well a = 9255.
After knock-down of CG13994 the results were induced reporter light, run 1, well a = 1.74e5; induced reporter light, run 1, well b = 1.51e5; control promoter light, run 1, well a = 2.22e5; control promoter light, run 1, well b = 2.12e5; uninduced reporter light, run 1, well a = 12605.

Copied from above for reference:
LpR1 (Lipophorin receptor 1) #1 — induced reporter light, run 1, well a = 2.07e5; induced reporter light, run 1, well b = 2.47e5; control promoter light, run 1, well a = 2.33e5; control promoter light, run 1, well b = 2.70e5; uninduced reporter light, run 1, well a = 14360
LpR1 (Lipophorin receptor 1) #2 — induced reporter light, run 1, well a = 1.80e5; induced reporter light, run 1, well b = 1.80e5; control promoter light, run 1, well a = 1.96e5; control promoter light, run 1, well b = 1.61e5; uninduced reporter light, run 1, well a = 11560
